# Reference: PubChem BioAssay AID1347131 (National Center for Advancing Translational Sciences (NCATS), 2019)
# Screen size: about 410,000 compounds; about 2,000 (0.49%) were called active. Inconclusive means that the source gave no clear call. Such entries were picked first, then a sample of the others. The call rests on the fitted dose curve; tested in HEK293 reporter line. A potency beside an inconclusive call is a rough fit, not a confirmed value.
# Test: qHTS Assay for Foot and Mouth Disease Virus Antivirals: Primary Screen against the MLPCN compound library; further: nearly all actives have a fitted effect of over 55% in size
# Details: FMDV antiviral cell-based qHTS; activity, negative = inhibition: at 57.9 µM (top of the series)
# Potency means the concentration at half of the fitted maximal effect.
SMILES,Potency,"activity, negative = inhibition"
Fc1cccc(F)c1/C=C/c1ccc2ccccc2n1,"inconclusive: 10 µM [inhibitor, partial curve, poor fit]",–
CCOC(=O)c1cnc2c(c(C)nn2C)c1Oc1ccccc1F,–,inconclusive: -30.6% [inhibitor]
CCOC(=O)c1cnc(SCC(=O)Nc2cc(OC)ccc2OC)nc1N,"inconclusive: 14.1 µM [inhibitor, partial curve, poor fit]",–
COc1ccc(CN2C(=O)NC(=O)/C(=C/c3ccoc3)C2=O)cc1,–,inactive: -38%
O=C(NCc1ccc(F)cc1)C(=O)NCC(c1cccs1)S(=O)(=O)c1cccs1 (stereo not given),–,inactive: -30.9%
Cc1cc(C)nc(N/N=C/C2=C(N3CCOCC3)C(=C/c3ccccc3)/CC2)n1,"inconclusive: 28.2 µM [inhibitor, single point]",–
Cc1cc(OCCOc2cccc3cccnc23)cc(C)c1Cl,–,inactive: -34.1%
COc1cc(-c2cc(NC=O)c3ncc(-c4cccc(C(F)(F)F)c4)n3c2)cc(OC)c1OC,–,inactive: -31.8%
CCC(=O)Nc1cccc(C(=O)/C=C/c2cc(Br)ccc2OC)c1,"inconclusive: 8.91 µM [inhibitor, full curve, poor fit]",–
CCCc1cnc(N2CCN(C(=O)c3ccc(F)cc3)CC2)nc1,–,inactive: -41.6%
Cc1nc(N2CCOCC2)nc(N2CCC(C)CC2)c1[N+](=O)[O-],"inconclusive: 7.08 µM [inhibitor, partial curve]",–
CCOC(=O)C1=C(CN2CCSCC2)NC(=O)NC1c1ccc2c(c1)OCO2 (stereo not given),"inconclusive: 28.2 µM [inhibitor, partial curve, poor fit]",–
CC(C)n1c(CN(C)Cc2ccccc2)nc2c1c(=O)n(C)c(=O)n2C,"inconclusive: 17.8 µM [inhibitor, partial curve, poor fit]",–
Cc1ccc(C(=O)CCC(=O)N2CCN(c3ccccc3O)CC2)cc1,"inconclusive: 15.8 µM [inhibitor, partial curve, poor fit]",–
O=C1c2cccc3c([N+](=O)[O-])ccc(c23)C(=O)N1c1nccs1,"inconclusive: 35.5 µM [inhibitor, partial curve, poor fit]",–
CCCCCc1c(-c2ccc(OC)cc2)ncn1CCc1ccccc1OC,"inconclusive: 22.4 µM [inhibitor, partial curve, poor fit]",–
CCOc1ccc(C(=O)Nc2cc(C)ccn2)cc1,"inconclusive: 10 µM [inhibitor, partial curve, poor fit]",–
CCOc1cc(/C=C2\COc3ccccc3C2=O)ccc1OCC(=O)N(C)C,"inconclusive: 28.2 µM [inhibitor, partial curve, poor fit]",–
CCN1CCN(c2ncnc3c2sc(=S)n3-c2ccccc2)CC1,"inconclusive: 31.6 µM [inhibitor, partial curve, poor fit]",–
CCCCC1OC23CCCCC2C(C#N)(C(=N)O3)C1(C#N)C#N (stereo not given),"inconclusive: 25.1 µM [inhibitor, partial curve, poor fit]",–

SMILES,Potency,"activity, negative = inhibition"
O=C(COC(=O)C12CC3CC(CC(C3)C1)C2)N1CCN(S(=O)(=O)c2ccccc2)CC1,"inconclusive: 10 µM [inhibitor, partial curve]",–
Cc1cccc(Nc2nc(-c3ccccc3)cs2)n1,"inconclusive: 39.8 µM [inhibitor, single point]",–
COc1ccc(NC(=O)CSc2ccc(NC(C)=O)cc2)cc1S(=O)(=O)N1CCOCC1,"inconclusive: 15.8 µM [inhibitor, single point]",–
COc1cc(/C=N/NC(=O)c2cc(C3CC3)[nH]n2)cc(OC)c1OC,"inconclusive: 5.01 µM [inhibitor, partial curve]",–
O=C1NC(=O)C(=Cc2ccc(SC3CCCCC3)o2)C(=O)N1,"inconclusive: 17.8 µM [inhibitor, partial curve, poor fit]",–
COc1ccc(/C=C2/CCC(CN3CCOCC3)C2=O)cc1 (stereo not given),"inconclusive: 17.8 µM [inhibitor, partial curve, poor fit]",–
CC[n+]1c(/C=C2/C=C(C)CC(C)(C)C2)sc2ccc(OC)cc21,"inconclusive: 20 µM [inhibitor, partial curve, poor fit]",–
O=S(=O)(N/N=C\c1cccc(F)c1)c1ccccc1,–,inactive: 113%
O=C(OCC(=O)N1CCc2ccccc21)c1ccccc1[N+](=O)[O-],"inconclusive: 25.1 µM [inhibitor, single point]",–
CCC1OC23CCCCC2C(C#N)(C(=N)O3)C1(C#N)C#N (stereo not given),"inconclusive: 14.1 µM [inhibitor, partial curve, poor fit]",–
CC(C)CC(=O)Nc1nnc(SCC(=O)Nc2ccc(F)cc2)s1,–,inactive: -44.4%
CCCSc1nc2c(c(=O)[nH]c(=O)n2C)n1Cc1ccccc1,"inconclusive: 39.8 µM [inhibitor, partial curve, poor fit]",–
COc1cc(SC)ccc1C(=O)Nc1ccc(Cl)cn1,"inconclusive: 10 µM [inhibitor, partial curve, poor fit]",–
Cc1ccc2nc(NC(=O)c3ccccn3)sc2c1,"inconclusive: 8.91 µM [inhibitor, full curve, poor fit]",–
Cc1nc2c(-c3ccc(F)cc3)c(C)nn2c(C)c1CCC(=O)Nc1ccccc1,–,inactive: -40.1%
O=c1oc2c(CN3CCN(CCO)CC3)c(O)ccc2cc1-c1ccccn1,"inconclusive: 3.98 µM [inhibitor, full curve]",–
CC(C)Cn1c(N)c(C(=O)COC(=O)CC23CC4CC(CC(C4)C2)C3)c(=O)n(C)c1=O,"inconclusive: 12.6 µM [inhibitor, partial curve, poor fit]",–
C=C1C(O)[C@@H]2O[C@]3(CC[C@H](/C=C/C(C)[C@@H]4CC(C)=CC5(O[C@H](C[C@@](C)(O)C(=O)O)CCC5O)O4)O3)CC[C@H]2O[C@@H]1C(O)CC(C)[C@H]1OC2(CCCCO2)CCC1C (stereo not given in full),"inconclusive: 1 µM [inhibitor, full curve, poor fit]",–
CC(C)(C)n1ncc2c(=O)n(CC(=O)Nc3ccc(Cl)cc3)cnc21,–,inactive: -38.5%
CN(C)c1ccc(N=Nc2cccc(F)c2)cc1,"inconclusive: 17.8 µM [inhibitor, partial curve]",–

# Retrieved one by one from the entries so far:
SMILES,Potency,"activity, negative = inhibition"
Cc1cccc(Nc2nc(-c3ccccc3)cs2)n1,"inconclusive: 39.8 µM [inhibitor, single point]",–
O=C(OCC(=O)N1CCc2ccccc21)c1ccccc1[N+](=O)[O-],"inconclusive: 25.1 µM [inhibitor, single point]",–
Cc1ccc2nc(NC(=O)c3ccccn3)sc2c1,"inconclusive: 8.91 µM [inhibitor, full curve, poor fit]",–
CC[n+]1c(/C=C2/C=C(C)CC(C)(C)C2)sc2ccc(OC)cc21,"inconclusive: 20 µM [inhibitor, partial curve, poor fit]",–

# Following part.

SMILES,Potency,"activity, negative = inhibition"
COc1ccc(S(=O)(=O)N(CC(=O)Nc2ccc(OC)cc2OC)c2ccc(Cl)cc2)cc1,"inconclusive: 3.16 µM [inhibitor, partial curve, poor fit]",–
O=C(Nc1ccc(Cn2cccn2)cc1)c1ccc(COc2ccccc2Br)cc1,"inconclusive: 14.1 µM [inhibitor, partial curve, poor fit]",–
CCCCCCCCn1sccc1=O,"inconclusive: 28.2 µM [inhibitor, partial curve, poor fit]",–
CCC(CC)C(=O)Nc1nc(-c2ccc3c(c2)CCN3C(=O)C2CC2)c(C)s1,"inconclusive: 11.2 µM [inhibitor, partial curve, poor fit]",–
Cc1c(C)c2ccc(OCC(=O)Nc3nccs3)cc2oc1=O,"inconclusive: 11.2 µM [inhibitor, single point]",–
C=CCn1c(=O)[nH]c2cc(C(=O)N3CCN(c4ccc(C(C)=O)cc4)CC3)ccc2c1=O,"inconclusive: 14.1 µM [inhibitor, partial curve, poor fit]",–
CN(c1ccc(C(=O)NCCc2ccccc2)cc1)S(C)(=O)=O,"inconclusive: 39.8 µM [inhibitor, single point]",–
CCOCc1cn(CC(=O)c2ccc([N+](=O)[O-])cc2)c(C)nc1=N,–,inconclusive: -30.7% [inhibitor]
COc1ccccc1C(=O)N[C@@H]1c2ccccc2C2(CCN(Cc3nc(C(C)C)cs3)CC2)[C@H]1O,"inconclusive: 11.2 µM [inhibitor, partial curve, poor fit]",–
COC(=O)c1cccc(NC(=O)c2ccc(S(=O)(=O)N(C)c3ccccc3OC)cc2)c1,"inconclusive: 35.5 µM [inhibitor, partial curve, poor fit]",–
O=C(NCc1nnc(SCc2ccc(F)cc2)n1-c1ccccc1)C12CC3CC(CC(C3)C1)C2,"inconclusive: 39.8 µM [inhibitor, partial curve, poor fit]",–
CCOc1ccc(CCNC(=O)COC(=O)c2nn(C)c(=O)c3ccccc23)cc1OCC,"inconclusive: 10 µM [inhibitor, partial curve]",–
CC1=C(C(=O)Nc2cc(C(=O)N3CCN(c4ccc(Cl)cc4)CC3)ccc2C)SCCO1,"inconclusive: 22.4 µM [inhibitor, partial curve, poor fit]",–
CCOc1ccc(OC(=O)c2c(-c3ccccc3Cl)noc2C)cc1,"inconclusive: 39.8 µM [inhibitor, partial curve, poor fit]",–
CCOc1ccc(-n2c(SCc3ccc(C(=O)OC)o3)nc3c(c2=O)SCC3)cc1,"inconclusive: 15.8 µM [inhibitor, partial curve]",–
Cc1ccc(-c2nc3n(n2)Cc2ccccc2-3)cc1,"inconclusive: 10 µM [inhibitor, partial curve, poor fit]",–
COc1ccc2oc3cc(C)[n+]([O-])c(-c4ccc(Cl)cc4)c3c2c1,"inconclusive: 35.5 µM [inhibitor, partial curve, poor fit]",–
Cc1ccc2nc(-c3ccccc3)nn2c1,"inconclusive: 11.2 µM [inhibitor, partial curve, poor fit]",–
CCOc1ccc(OCCCCN(C)C)cc1,"inconclusive: 6.31 µM [inhibitor, partial curve, poor fit]",–
CCOc1ccc(NC(=O)C2CCN(S(=O)(=O)c3c(C)noc3/C=C/c3cccs3)CC2)cc1,"inconclusive: 11.2 µM [inhibitor, partial curve, poor fit]",–
